Source: patent US7098186B2, “Depsipeptide compound” (Astellas Pharma INC, priority 2002, dated 2006)
Some of these results come from one statement about several compounds together.

Tested on: HDAC partially purified from nuclei of human leukemia K562 cells
Experiment: Assay for HDAC inhibitory activity ([3H]acetyl-histone H4 peptide substrate)
Type: biochemical
Settings: at the concentration of 10 nM

SMILES | inhibitory activity of HDAC enzyme [%]
CC1NC(=O)CC2/C=C/CCSSCC(NC1=O)C(=O)NC(C(C)C)C(O)CC(=O)O2 (centres unmarked) [compound R] | ≥ 50
CC1NC(=O)CC2/C=C/CCSSSCC(NC1=O)C(=O)NC(C(C)C)C(O)CC(=O)O2 (centres unmarked) [compound Q] | ≥ 50
